The values that follow come from paper PMC9440756.

Sequences of proteins named here, by UniProt entry; tags and fusion partners are left off.
UniProt Q02248: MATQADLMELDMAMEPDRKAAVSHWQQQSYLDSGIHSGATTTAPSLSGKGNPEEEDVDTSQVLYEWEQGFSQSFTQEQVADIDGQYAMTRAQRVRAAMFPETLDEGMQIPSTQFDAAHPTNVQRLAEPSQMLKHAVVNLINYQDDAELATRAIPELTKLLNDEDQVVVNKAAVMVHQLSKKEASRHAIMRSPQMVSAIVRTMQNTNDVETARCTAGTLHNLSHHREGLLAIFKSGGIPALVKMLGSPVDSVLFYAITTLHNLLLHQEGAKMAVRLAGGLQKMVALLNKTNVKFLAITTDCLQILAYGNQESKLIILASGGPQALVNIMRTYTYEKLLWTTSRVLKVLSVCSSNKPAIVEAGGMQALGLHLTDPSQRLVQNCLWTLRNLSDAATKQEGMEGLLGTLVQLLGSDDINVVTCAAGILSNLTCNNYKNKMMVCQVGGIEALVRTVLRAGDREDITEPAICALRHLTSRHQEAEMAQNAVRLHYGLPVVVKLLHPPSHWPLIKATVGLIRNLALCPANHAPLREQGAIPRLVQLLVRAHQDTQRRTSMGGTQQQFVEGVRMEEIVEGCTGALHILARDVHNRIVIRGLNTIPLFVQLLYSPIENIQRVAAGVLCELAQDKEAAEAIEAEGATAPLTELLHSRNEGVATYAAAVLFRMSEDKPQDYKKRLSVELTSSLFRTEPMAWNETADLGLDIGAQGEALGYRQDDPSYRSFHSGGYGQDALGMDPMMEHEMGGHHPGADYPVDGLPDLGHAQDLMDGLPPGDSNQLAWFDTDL

The target in assay [1] is T1, TWIST1 (mouse (endogenous in embryonic mid and hindbrain tissue)) (UniProt P26687).
T1 sequence: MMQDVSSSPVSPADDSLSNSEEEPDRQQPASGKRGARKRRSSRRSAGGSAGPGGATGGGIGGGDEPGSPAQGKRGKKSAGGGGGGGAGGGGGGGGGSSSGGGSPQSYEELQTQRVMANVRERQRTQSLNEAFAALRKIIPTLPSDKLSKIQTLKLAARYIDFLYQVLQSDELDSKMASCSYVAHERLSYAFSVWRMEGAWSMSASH
The assay is described as follows: co-IP; nuclear fraction of protein extracted from mouse embryonic hindbrain tissue (E8.5); nuclear buffer 50 mM Tris-HCl pH 8, 137.5 mM NaCl, 0.1% Triton X-100, 0.5% SDS, 10% glycerol, 5 mM EDTA; anti-TWIST1 antibodies, Protein A/G magnetic beads; western blot.

For assay [2], the target named is T1, TWIST1 (mouse (endogenous in embryonic mid and hindbrain tissue)). Kind of assay: co-IP; cytosolic fraction of protein extracted from mouse embryonic hindbrain tissue (E8.5-E9.0; methods say E8.5 and E9.5); cytoplasmic buffer 50 mM Tris-HCl pH 8, 137.5 mM NaCl, 0.05% Triton X-100, 10% glycerol, 5 mM EDTA; anti-TWIST1 antibodies, Protein A/G magnetic beads; western blot.

No constants are given. Whether binding was seen depends on the method and setting. Binding seen in cells or lysates may run through a third protein. Some binding calls cover weakened binding; strength is not graded here.

For β-catenin (from UniProt Q02248 1-781), the binding result in assay [1] is “binds weakly”; in assay [2], “binds”.
